Experimental findings from article PMC8831594 are described below.

These are yes or no findings as the source states them, for the method shown. Binding seen in cells or lysates may run through a third protein.

The target in the test is T1, Lamina-associated polypeptide 2α (Lap2α), endogenous (mouse (endogenous in NIH 3T3)) (UniProt Q61033).
T1 sequence: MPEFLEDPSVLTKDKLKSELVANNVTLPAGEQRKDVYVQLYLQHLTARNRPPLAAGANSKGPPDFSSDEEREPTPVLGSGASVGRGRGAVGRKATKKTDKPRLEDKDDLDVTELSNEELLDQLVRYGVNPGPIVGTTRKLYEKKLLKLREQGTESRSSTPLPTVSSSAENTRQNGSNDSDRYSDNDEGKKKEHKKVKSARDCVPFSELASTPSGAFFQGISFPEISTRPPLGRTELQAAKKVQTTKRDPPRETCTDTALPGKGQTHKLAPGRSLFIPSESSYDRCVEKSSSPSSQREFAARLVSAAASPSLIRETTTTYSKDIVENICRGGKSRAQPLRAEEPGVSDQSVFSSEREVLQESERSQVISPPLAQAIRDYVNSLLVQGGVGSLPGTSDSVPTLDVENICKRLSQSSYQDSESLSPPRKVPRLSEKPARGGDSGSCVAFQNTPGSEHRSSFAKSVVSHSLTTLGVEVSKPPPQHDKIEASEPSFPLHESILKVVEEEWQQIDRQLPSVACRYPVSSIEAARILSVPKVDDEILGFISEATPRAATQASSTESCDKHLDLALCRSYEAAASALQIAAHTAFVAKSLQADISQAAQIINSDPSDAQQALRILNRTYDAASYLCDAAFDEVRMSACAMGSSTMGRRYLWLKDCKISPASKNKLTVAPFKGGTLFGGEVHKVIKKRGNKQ
The test is described as follows: co-IP; 'similar co-immunoprecipitation experiments' (Supplementary Fig. S6a); bait and format not given; the methods describe an IP of endogenous proteins from NIH 3T3 lysate with Lap2α antibody or IgG, Dynabeads Protein G, 4 h at 4 °C.

B1: Serum response factor (SRF) (protein, UniProt Q9JM73 1-504)
chain: MLPSQAGAAAALGRGSALGGNLNRTPTGRPGGGGGTRGANGGRVPGNGAGLGQSRLEREAAAAAAPTAGALYSGSEGDSESGEEEELGAERRGLKRSLSEMELGVVVGGPEAAAAAAGGYGPVSGAVSGAKPGKKTRGRVKIKMEFIDNKLRRYTTFSKRKTGIMKKAYELSTLTGTQVLLLVASETGHVYTFATRKLQPMITSETGKALIQTCLNSPDSPPRSDPTTDQRMSATGFEEPDLTYQVSESDSSGETKDTLKPAFTVTNLPGTTSTIQTAPSTSTTMQVSSGPSFPITNYLAPVSASVSPSAVSSANGTVLKSTGSGPVSSGGLMQLPTSFTLMPGGAVAQQVPVQAIHVHQAPQQASPSRDSSTDLTQTSSSGTVTLPATIMTSSVPTTVGGHMMYPSPHAVMYAPTSGLADGSLTVLNAFSQAPSTMQVSHSQVQEPGGVPQVFLTAPSGTVQIPVSAVQLHQMAVIGQQAGSSSNLTELQVVNLDATHSTKSE
In the case of B1, the binding entry is on record as “no binding”.
